# Results from the supplement of paper PMC12823440, “Inhibitors supercharge kinase turnover through native proteolytic circuits” (Nature, 2025).
# Sequences of proteins named here, by UniProt entry; tags and fusion partners are left off. A change or cut given only in a name is not applied to a line headed by its entry.
# UniProt Q15208: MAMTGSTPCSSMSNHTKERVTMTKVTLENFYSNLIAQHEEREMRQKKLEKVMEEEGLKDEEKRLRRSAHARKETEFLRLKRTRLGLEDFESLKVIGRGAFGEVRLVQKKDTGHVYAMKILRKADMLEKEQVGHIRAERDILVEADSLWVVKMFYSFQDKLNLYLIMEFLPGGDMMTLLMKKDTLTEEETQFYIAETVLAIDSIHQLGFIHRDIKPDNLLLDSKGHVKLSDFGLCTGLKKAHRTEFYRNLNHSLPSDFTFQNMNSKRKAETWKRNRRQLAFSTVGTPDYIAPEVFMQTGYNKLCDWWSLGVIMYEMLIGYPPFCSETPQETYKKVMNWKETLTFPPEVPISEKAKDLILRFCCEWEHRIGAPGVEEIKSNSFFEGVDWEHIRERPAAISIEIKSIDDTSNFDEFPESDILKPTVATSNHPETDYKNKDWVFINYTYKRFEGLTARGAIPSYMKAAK
# UniProt P42680: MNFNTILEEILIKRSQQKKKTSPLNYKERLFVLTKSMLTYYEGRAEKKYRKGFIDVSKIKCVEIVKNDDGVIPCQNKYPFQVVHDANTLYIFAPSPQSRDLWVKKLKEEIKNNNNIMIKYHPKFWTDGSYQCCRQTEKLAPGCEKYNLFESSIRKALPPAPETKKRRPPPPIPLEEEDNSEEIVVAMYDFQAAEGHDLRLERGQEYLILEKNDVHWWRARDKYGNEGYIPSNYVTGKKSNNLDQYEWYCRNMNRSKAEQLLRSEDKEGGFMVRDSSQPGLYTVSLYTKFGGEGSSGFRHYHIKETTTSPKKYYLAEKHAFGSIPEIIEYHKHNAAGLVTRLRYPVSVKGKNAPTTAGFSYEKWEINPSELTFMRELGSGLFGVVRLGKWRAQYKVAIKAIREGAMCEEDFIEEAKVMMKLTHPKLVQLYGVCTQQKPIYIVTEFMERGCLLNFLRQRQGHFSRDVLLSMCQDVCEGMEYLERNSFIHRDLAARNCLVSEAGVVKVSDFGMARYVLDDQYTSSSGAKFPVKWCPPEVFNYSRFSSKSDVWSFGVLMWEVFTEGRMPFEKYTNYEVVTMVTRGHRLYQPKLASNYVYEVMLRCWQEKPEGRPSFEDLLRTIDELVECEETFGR
# UniProt Q6PHR2: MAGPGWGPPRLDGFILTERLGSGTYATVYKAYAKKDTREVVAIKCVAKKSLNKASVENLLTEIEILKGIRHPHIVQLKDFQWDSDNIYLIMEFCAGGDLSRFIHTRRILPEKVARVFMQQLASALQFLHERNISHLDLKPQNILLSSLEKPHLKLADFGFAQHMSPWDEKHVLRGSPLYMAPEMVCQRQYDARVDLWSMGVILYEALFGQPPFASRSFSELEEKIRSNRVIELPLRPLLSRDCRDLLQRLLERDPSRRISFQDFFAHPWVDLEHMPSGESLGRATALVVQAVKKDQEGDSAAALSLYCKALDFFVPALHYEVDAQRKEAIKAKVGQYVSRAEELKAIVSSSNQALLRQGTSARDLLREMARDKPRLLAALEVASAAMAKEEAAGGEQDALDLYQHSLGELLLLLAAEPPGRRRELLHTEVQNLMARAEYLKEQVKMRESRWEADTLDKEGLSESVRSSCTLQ
# UniProt P07947, whole entry, looked up: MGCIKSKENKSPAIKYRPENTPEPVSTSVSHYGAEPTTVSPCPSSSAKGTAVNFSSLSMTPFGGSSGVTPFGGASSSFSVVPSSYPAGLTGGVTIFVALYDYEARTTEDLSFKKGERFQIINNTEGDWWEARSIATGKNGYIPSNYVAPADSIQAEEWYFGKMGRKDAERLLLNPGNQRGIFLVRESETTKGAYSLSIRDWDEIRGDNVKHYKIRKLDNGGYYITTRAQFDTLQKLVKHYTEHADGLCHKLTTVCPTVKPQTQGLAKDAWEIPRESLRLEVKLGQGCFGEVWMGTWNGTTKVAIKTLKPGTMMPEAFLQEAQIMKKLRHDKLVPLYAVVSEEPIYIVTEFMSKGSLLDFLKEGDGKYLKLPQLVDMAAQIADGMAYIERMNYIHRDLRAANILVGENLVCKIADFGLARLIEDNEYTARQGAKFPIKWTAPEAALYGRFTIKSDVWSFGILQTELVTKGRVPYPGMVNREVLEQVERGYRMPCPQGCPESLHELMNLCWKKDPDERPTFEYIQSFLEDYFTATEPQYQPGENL
# UniProt P43403: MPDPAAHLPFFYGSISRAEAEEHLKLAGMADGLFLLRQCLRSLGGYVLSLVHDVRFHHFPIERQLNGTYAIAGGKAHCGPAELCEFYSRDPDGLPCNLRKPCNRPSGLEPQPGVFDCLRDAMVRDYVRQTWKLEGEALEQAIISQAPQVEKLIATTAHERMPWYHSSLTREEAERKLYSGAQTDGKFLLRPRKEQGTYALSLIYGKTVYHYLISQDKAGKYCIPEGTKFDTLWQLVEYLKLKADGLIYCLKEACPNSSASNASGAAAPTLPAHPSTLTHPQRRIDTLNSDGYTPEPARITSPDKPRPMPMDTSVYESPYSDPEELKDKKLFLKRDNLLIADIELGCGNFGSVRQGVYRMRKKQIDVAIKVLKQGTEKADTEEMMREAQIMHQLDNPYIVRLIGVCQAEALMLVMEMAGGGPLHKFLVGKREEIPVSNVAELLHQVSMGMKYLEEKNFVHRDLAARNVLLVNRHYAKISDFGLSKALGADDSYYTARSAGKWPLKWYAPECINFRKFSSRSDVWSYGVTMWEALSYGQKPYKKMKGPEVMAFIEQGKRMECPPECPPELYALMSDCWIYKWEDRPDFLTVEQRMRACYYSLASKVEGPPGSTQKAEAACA
# UniProt P00519, whole entry: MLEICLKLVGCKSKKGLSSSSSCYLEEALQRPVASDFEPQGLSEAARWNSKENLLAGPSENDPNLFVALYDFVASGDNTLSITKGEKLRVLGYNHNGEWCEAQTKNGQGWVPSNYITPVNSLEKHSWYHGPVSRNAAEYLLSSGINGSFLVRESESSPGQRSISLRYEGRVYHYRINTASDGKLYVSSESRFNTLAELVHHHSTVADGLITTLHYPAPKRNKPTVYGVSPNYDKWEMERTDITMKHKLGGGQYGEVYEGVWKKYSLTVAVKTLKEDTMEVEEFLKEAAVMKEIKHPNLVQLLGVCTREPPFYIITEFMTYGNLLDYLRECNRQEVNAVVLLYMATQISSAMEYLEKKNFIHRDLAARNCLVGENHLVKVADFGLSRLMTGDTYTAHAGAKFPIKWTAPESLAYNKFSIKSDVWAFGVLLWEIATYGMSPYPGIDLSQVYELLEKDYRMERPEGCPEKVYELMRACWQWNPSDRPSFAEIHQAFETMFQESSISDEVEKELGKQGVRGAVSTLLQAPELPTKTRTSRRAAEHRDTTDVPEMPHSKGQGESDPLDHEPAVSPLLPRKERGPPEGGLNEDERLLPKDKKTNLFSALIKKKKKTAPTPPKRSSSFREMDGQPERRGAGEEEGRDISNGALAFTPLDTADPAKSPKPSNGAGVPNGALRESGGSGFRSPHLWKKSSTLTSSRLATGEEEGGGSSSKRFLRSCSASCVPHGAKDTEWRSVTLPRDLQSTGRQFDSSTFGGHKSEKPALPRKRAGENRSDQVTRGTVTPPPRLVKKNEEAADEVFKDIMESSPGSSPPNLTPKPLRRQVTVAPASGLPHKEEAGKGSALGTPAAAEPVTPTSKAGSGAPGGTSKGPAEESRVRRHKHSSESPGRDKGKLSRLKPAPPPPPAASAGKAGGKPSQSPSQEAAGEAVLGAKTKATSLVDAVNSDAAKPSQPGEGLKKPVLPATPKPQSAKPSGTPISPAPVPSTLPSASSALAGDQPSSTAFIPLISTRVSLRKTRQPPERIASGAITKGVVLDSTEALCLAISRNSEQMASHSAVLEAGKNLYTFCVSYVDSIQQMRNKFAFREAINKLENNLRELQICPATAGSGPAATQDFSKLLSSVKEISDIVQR
# UniProt Q9UM73: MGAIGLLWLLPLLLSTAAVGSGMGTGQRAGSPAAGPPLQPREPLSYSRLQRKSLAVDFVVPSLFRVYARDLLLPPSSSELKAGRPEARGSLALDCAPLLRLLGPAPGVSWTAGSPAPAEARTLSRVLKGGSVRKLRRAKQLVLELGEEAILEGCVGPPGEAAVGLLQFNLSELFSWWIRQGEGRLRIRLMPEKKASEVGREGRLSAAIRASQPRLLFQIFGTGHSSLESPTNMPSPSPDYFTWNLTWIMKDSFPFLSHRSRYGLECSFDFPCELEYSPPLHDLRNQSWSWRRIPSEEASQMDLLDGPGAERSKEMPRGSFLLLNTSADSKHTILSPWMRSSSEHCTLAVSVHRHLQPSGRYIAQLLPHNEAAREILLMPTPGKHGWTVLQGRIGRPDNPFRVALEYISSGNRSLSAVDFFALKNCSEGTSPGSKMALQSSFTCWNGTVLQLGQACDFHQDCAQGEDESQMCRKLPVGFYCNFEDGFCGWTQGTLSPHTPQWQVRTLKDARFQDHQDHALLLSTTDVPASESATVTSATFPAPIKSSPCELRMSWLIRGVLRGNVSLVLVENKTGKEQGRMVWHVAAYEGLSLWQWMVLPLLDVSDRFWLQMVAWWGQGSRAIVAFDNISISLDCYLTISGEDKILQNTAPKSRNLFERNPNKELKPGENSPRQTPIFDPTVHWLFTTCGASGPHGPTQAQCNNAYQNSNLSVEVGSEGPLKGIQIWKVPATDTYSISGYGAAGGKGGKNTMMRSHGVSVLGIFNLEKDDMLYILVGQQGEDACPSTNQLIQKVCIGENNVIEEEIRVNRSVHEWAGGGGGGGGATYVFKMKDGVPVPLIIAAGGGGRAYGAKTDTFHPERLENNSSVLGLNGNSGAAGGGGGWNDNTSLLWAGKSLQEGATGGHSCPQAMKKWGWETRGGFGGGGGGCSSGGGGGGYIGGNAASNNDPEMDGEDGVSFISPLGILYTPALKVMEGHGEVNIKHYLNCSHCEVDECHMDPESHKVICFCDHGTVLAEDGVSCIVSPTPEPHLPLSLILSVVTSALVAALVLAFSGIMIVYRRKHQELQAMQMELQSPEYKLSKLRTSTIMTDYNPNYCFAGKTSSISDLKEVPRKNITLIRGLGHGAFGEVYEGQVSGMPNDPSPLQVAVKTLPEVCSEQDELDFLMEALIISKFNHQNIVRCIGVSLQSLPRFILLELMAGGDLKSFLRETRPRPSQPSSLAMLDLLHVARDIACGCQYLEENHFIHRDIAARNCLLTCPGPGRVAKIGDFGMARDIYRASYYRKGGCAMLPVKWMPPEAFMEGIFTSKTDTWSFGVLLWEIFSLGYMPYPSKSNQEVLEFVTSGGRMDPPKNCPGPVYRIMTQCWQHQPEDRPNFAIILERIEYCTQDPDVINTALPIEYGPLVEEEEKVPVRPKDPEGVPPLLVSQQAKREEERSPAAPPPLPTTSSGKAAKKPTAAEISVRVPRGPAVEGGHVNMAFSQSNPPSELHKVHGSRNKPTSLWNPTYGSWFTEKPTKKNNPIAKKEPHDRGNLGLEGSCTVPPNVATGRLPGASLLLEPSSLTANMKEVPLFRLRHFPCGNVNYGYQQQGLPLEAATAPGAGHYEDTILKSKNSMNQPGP
# UniProt P10398: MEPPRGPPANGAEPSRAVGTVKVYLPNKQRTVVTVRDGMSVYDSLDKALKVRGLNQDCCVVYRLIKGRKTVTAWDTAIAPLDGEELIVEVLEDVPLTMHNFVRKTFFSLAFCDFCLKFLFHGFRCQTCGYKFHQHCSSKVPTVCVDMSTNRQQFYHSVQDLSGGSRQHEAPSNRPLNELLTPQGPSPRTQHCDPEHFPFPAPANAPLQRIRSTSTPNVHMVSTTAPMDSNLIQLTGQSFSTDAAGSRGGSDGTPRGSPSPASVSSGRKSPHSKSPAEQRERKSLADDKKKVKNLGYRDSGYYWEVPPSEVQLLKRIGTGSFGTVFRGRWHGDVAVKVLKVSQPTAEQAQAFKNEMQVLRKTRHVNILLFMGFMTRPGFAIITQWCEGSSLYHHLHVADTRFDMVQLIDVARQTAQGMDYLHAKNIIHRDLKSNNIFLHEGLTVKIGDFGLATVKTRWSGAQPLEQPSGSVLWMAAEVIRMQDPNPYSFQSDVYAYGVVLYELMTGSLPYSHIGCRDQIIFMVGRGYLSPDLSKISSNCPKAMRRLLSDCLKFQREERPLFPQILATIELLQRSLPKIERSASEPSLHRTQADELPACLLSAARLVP
# UniProt Q96GD4, whole entry: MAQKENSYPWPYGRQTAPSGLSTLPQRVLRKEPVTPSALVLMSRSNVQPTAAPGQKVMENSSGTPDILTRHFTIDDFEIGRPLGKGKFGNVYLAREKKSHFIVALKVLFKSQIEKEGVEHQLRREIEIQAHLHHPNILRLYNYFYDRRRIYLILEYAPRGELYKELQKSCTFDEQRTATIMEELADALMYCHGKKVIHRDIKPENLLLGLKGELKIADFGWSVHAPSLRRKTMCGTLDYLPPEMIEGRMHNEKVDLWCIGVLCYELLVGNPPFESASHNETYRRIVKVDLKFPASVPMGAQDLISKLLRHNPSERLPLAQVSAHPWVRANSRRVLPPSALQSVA
# This is one part of the list. Hit calls seldom repeat between salt and free forms of one compound.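 Kinases, fused to nanoluciferase, were expressed in K562 cells; luminescence was measured every 4 h from 2 to 18 h as percent of control (DMSO = 100%, positive control = 0%). A time point is decreased if signal falls significantly (2 sigma). Hits were called by the authors by a rule that is not shown; the count of time points alone does not decide it.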
# Key:
# Conditions in all cases: K562; 2-18 h
# STK38 = STK38 (UniProt Q15208); test: kinase-Nluc reporter destabilization hit call (1 = scored as downregulated) (binary); higher = compound decreases kinase abundance
# SYK = SYK (UniProt P43405); test: as above
# TEC = TEC (UniProt P42680); test: as above
# TYK2 = TYK2 (UniProt P29597); test: as above
# ULK3 = ULK3 (UniProt Q6PHR2); test: as above
# YES1 = YES1 (UniProt P07947); test: as above
# ZAK = ZAK (UniProt Q9NYL2); test: as above
# ZAP70 = ZAP70 (UniProt P43403); test: as above
# ABL1 = ABL1 (UniProt P00519); test: number of time points (of 5) at which kinase-Nluc abundance scored as decreased, DMSO-normalised (count); higher = more persistent destabilization
# AKT1 = AKT1 (UniProt P31749); test: as above
# ALK = ALK (UniProt Q9UM73); test: as above
# ARAF = ARAF (UniProt P10398); test: as above
# AURKA = AURKA (UniProt O14965); test: as above
# AURKB = AURKB (UniProt Q96GD4); test: as above
# AURKC = AURKC (UniProt Q9UQB9); test: as above
# BLK = BLK (UniProt P51451); test: as above
# BMX = BMX (UniProt P51813); test: as above
# BRAF = BRAF (UniProt P15056); test: as above
# BRAF_V600E = test: as above
# BTK = BTK (UniProt Q06187); test: as above
SMILES,kinase-Nluc reporter destabilization hit call (STK38),kinase-Nluc reporter destabilization hit call (SYK),kinase-Nluc reporter destabilization hit call (TEC),kinase-Nluc reporter destabilization hit call (TYK2),kinase-Nluc reporter destabilization hit call (ULK3),kinase-Nluc reporter destabilization hit call (YES1),kinase-Nluc reporter destabilization hit call (ZAK),kinase-Nluc reporter destabilization hit call (ZAP70),number of time points (ABL1),number of time points (AKT1),number of time points (ALK),number of time points (ARAF),number of time points (AURKA),number of time points (AURKB),number of time points (AURKC),number of time points (BLK),number of time points (BMX),number of time points (BRAF),number of time points (BRAF_V600E),number of time points (BTK)
CC(C)n1c(=O)n(C)c2cnc3cc(F)c(-c4ccc(OCCCN5CCCCC5)nc4)cc3c21 (10 µM),inactive: 0,inactive: 0,inactive: 0,inactive: 0,inactive: 0,inactive: 0,inactive: 0,inactive: 0,0,0,0,0,0,0,0,0,0,0,0,0
O=C(Nc1cccnc1)c1cc(-c2ccnc(F)c2)ccc1OCc1ccccc1 (10 µM),inactive: 0,inactive: 0,inactive: 0,inactive: 0,inactive: 0,inactive: 0,inactive: 0,inactive: 0,0,0,0,0,0,0,0,0,0,0,0,0
Cc1cc(C(=O)Nc2nc3cccc(Cl)c3n2[C@@H]2CCCCN(C(=O)/C=C/CN(C)C)C2)ccn1 [Nazartinib] (10 µM),inactive: 0,inactive: 0,inactive: 0,inactive: 0,inactive: 0,inactive: 0,inactive: 0,inactive: 0,0,0,0,0,0,0,0,0,0,0,0,0
NC1(C(=O)NCCCn2cc(-c3ccc(OC(F)(F)F)cc3)c3cc(CN4CCN(Cc5c(Cl)cccc5Cl)CC4)ccc32)CCNCC1 (2.5 µM),inactive: 0,inactive: 0,inactive: 0,inactive: 0,inactive: 0,inactive: 0,inactive: 0,inactive: 0,0,0,0,0,2,0,0,1,0,0,1,0
COC(=O)Nc1ccc(-c2nc(N3CCOCC3)c3cnn(C4CCN(C(=O)OC)CC4)c3n2)cc1 (10 µM),inactive: 0,inactive: 0,inactive: 0,inactive: 0,inactive: 0,inactive: 0,inactive: 0,inactive: 0,0,0,0,0,0,0,0,0,0,0,0,0
C[C@@H](Nc1ncnc2[nH]c(-c3ccc(O)cc3)cc12)c1ccccc1 (2.5 µM),inactive: 0,inactive: 0,inactive: 0,inactive: 0,inactive: 0,inactive: 0,inactive: 0,inactive: 0,0,0,0,0,0,0,0,0,0,0,0,0
COCCOCCc1c(C)c2cc(OC)c(O)c(C=O)c2oc1=O (10 µM),inactive: 0,inactive: 0,inactive: 0,inactive: 0,inactive: 0,inactive: 0,inactive: 0,inactive: 0,0,0,0,0,0,0,0,0,0,0,0,0
Clc1ccc(C(c2ccc(Cl)cc2)[n+]2ccn(CC(OCc3ccc(Cl)cc3Cl)c3ccc(Cl)cc3Cl)c2)cc1 (stereo not given) [Calmidazolium chloride] (2.5 µM),inactive: 0,inactive: 0,inactive: 0,inactive: 0,inactive: 0,inactive: 0,inactive: 0,inactive: 0,4,0,0,0,3,1,0,3,0,0,2,0
C=C1CCC[C@]2(C)C=C3OC(=O)C(C)=C3C[C@@H]12 [Atractylenolide I] (10 µM),inactive: 0,inactive: 0,inactive: 0,inactive: 0,inactive: 0,inactive: 0,inactive: 0,inactive: 0,0,0,0,0,0,0,0,0,0,0,0,0
C=CC(=O)N1CCN(C(=O)CNc2cc(I)c(Cl)cc2O)CC1 [K-Ras(G12C) inhibitor 12] (10 µM),inactive: 0,inactive: 0,inactive: 0,inactive: 0,inactive: 0,inactive: 0,inactive: 0,inactive: 0,0,0,0,0,0,0,0,0,0,0,0,0
COc1cc2ncnc(Nc3ccc(O)c(Br)c3)c2cc1OC (10 µM),inactive: 0,inactive: 0,inactive: 0,inactive: 0,inactive: 0,inactive: 0,inactive: 0,inactive: 0,0,0,0,0,0,0,0,0,0,0,0,0
Cc1cc(CSc2ccccc2C(=O)NCCNc2ccc(C(F)(F)F)cc2[N+](=O)[O-])on1 (10 µM),inactive: 0,inactive: 0,inactive: 0,inactive: 0,inactive: 0,inactive: 0,inactive: 0,inactive: 0,0,0,0,0,0,0,0,0,0,0,0,0
COc1c(O)cc2oc(-c3ccc(O)cc3)cc(=O)c2c1O [Hispidulin] (10 µM),inactive: 0,inactive: 0,inactive: 0,inactive: 0,inactive: 0,inactive: 0,inactive: 0,inactive: 0,0,0,0,0,0,0,0,0,0,0,0,0
Nc1nc(N)c2nc(-c3cccc(O)c3)c(-c3cccc(O)c3)nc2n1 (10 µM),inactive: 0,inactive: 0,inactive: 0,inactive: 0,inactive: 0,inactive: 0,inactive: 0,inactive: 0,0,0,0,0,0,0,0,0,0,0,0,0
O=C1Nc2ccc(I)cc2/C1=C/c1cc(Br)c(O)c(Br)c1 (10 µM),inactive: 0,inactive: 0,inactive: 0,inactive: 0,inactive: 0,inactive: 0,inactive: 0,inactive: 0,0,0,0,0,1,0,0,0,4,5,4,0
c1ccc(Cn2c(-c3ccc(OC[C@H](C4CCNCC4)n4c(-c5ccccc5)nc5ccccc54)cc3)nc3ccccc32)cc1 [Deltarasin] (2.5 µM),inactive: 0,inactive: 0,inactive: 0,inactive: 0,inactive: 0,inactive: 0,inactive: 0,inactive: 0,0,0,0,0,0,0,0,0,0,0,0,0
CN1CCN(c2cc(-c3ccncc3)c(-c3ccc4ccccc4c3)nn2)CC1 (10 µM),inactive: 0,inactive: 0,inactive: 0,inactive: 0,inactive: 0,inactive: 0,inactive: 0,inactive: 0,0,0,0,0,0,0,0,0,0,0,0,0
Cc1ccc(-n2nc(C(C)(C)C)cc2NC(=O)Nc2ccc(OCCN3CCOCC3)cc2)cc1 (10 µM),inactive: 0,inactive: 0,inactive: 0,inactive: 0,inactive: 0,inactive: 0,inactive: 0,inactive: 0,0,0,0,0,0,0,0,0,0,0,0,0
O=C1CC[C@H](NC(=O)Cc2ccccc2)C(=O)N1 [Antineoplaston A10] (10 µM),inactive: 0,inactive: 0,inactive: 0,inactive: 0,inactive: 0,inactive: 0,inactive: 0,inactive: 0,0,0,0,0,0,0,0,0,0,0,0,0
COC(=O)/C=C/c1ccccc1 [Methyl cinnamate] (10 µM),inactive: 0,inactive: 0,inactive: 0,inactive: 0,inactive: 0,inactive: 0,inactive: 0,inactive: 0,0,0,0,0,0,0,0,0,0,0,0,0
Cc1cc(Nc2cc(N3CCN(C)CC3)nc(Nc3ccc([N+](=O)[O-])cc3)n2)n[nH]1 (2.5 µM),inactive: 0,inactive: 0,inactive: 0,inactive: 0,inactive: 0,inactive: 0,inactive: 0,inactive: 0,2,0,1,0,0,0,0,0,4,0,0,0
Cc1ccc(C)c(OCCn2cc(C(=O)O)c3ccccc32)c1 (10 µM),inactive: 0,inactive: 0,inactive: 0,inactive: 0,inactive: 0,inactive: 0,inactive: 0,inactive: 0,0,0,0,0,0,0,0,0,0,0,0,0
COc1ccc(-c2cc(=O)c3c(OC)cc(OC)c(OC)c3o2)cc1 [6-Demethoxytangeretin] (10 µM),inactive: 0,inactive: 0,inactive: 0,inactive: 0,inactive: 0,inactive: 0,inactive: 0,inactive: 0,0,0,0,0,0,0,0,0,0,0,0,0
C=CC(=O)Nc1cccc(Oc2nc(Nc3ccc(N4CCN(C)CC4)c(F)c3)nc3[nH]ccc23)c1 [Avitinib (maleate)] (2.5 µM),inactive: 0,inactive: 0,inactive: 0,inactive: 0,inactive: 0,inactive: 0,inactive: 0,inactive: 0,1,0,0,0,0,0,0,0,0,0,0,0
Nc1ncc(C(=O)NC2CN(C(=O)C3CC3)C2)c2ccc(-c3cccc(F)c3)nc12 (2 µM),inactive: 0,inactive: 0,inactive: 0,inactive: 0,inactive: 0,inactive: 0,inactive: 0,inactive: 0,0,0,0,0,0,0,0,0,0,0,0,0
CC(C)=CC[C@@H](O)C1=CC(=O)c2c(O)ccc(O)c2C1=O [Shikonin] (10 µM),inactive: 0,inactive: 0,inactive: 0,inactive: 0,inactive: 0,inactive: 0,inactive: 0,inactive: 0,0,0,0,0,0,0,0,0,1,0,0,0
CNC(=O)c1ccc2c(c1)ncn2-c1ccc(CC(=O)OC(C)(C)C)cc1 (10 µM),inactive: 0,inactive: 0,inactive: 0,inactive: 0,inactive: 0,inactive: 0,inactive: 0,inactive: 0,0,0,0,0,0,0,0,0,0,0,0,0
CCN(CC)CCOc1ccc(Nc2nc(-c3ccccc3NC(=O)CCN3CCN(C)CC3)nc3ccccc23)cc1 (2.5 µM),inactive: 0,inactive: 0,inactive: 0,inactive: 0,inactive: 0,inactive: 0,inactive: 0,inactive: 0,0,0,0,0,0,0,0,0,0,0,0,0
COc1ccc(Br)cc1NC(=O)Nc1cccc2c1ccn2Cc1ccnc(N)c1 (2.5 µM),inactive: 0,inactive: 0,inactive: 0,inactive: 0,inactive: 0,inactive: 0,inactive: 0,inactive: 0,0,0,0,0,0,0,0,0,0,0,0,0
N#C/C(=C\c1ccc(O)c(O)c1)C(=O)O [Tyrphostin AG30] (10 µM),inactive: 0,inactive: 0,inactive: 0,inactive: 0,inactive: 0,inactive: 0,inactive: 0,inactive: 0,0,0,0,0,0,0,0,0,0,0,0,0

# Single entries from the results shown.
# COc1cc2ncnc(Nc3ccc(O)c(Br)c3)c2cc1OC (10 µM) | kinase-Nluc reporter destabilization hit call (STK38): inactive: 0
# NC1(C(=O)NCCCn2cc(-c3ccc(OC(F)(F)F)cc3)c3cc(CN4CCN(Cc5c(Cl)cccc5Cl)CC4)ccc32)CCNCC1 (2.5 µM) | number of time points (ARAF): 0
